Measurements: PMC7615117, “DNSN-1 recruits GINS for CMG helicase assembly during DNA replication initiation in C. elegans” (Science (New York, N.Y.), 2023)
These are yes or no findings as the source states them, for the method shown. Binding calls can cover weak binding; strength is not graded here.

Experiments:
MCM-3 = molecular target: T1, MCM-3 (C. elegans, UniProt Q9XVR7 1-812); test: cryo-EM structure; CMG (125 nM) with fork DNA, AMP-PNP, TIM-1/TIPN-1 and DNSN-1 isoform c (each 1.3-fold molar excess), GraFix gradient with glutaraldehyde and BS3; both purified
T1 construct: MCM-3, C. elegans; Subunit of m11, written alone for its contacts in the structure; also called MCM-3 subunit of MCM-2-7; source: S. cerevisiae, purified as part of recombinant CMG
T1 sequence: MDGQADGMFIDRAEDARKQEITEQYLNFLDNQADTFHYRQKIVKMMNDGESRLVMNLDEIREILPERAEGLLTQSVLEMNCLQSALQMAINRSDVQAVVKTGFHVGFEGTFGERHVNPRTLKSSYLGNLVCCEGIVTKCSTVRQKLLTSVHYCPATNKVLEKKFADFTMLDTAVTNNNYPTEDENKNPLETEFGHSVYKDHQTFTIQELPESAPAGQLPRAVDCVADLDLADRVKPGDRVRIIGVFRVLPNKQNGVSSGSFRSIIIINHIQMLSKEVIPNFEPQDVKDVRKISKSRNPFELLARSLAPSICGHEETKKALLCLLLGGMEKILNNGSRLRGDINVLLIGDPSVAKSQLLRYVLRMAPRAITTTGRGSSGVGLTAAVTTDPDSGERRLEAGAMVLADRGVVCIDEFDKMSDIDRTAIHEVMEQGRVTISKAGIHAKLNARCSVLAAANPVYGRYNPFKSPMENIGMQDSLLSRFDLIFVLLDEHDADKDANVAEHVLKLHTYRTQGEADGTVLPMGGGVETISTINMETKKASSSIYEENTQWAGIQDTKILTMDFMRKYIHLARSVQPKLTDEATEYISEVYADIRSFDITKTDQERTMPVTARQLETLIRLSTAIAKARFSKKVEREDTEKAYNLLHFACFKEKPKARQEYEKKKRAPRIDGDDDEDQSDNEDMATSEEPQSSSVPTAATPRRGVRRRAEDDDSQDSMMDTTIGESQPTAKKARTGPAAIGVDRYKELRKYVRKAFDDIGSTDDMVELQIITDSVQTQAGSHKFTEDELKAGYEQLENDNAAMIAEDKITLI

PSF-2 (C. elegans) = molecular target: T2, PSF-2 (C. elegans) (UniProt O62193); test: as above
T2 sequence: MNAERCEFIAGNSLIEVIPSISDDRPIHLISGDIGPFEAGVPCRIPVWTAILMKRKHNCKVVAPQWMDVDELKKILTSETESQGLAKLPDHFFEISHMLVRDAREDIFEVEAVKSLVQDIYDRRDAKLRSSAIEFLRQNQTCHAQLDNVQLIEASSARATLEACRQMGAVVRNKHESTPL

## recombinant C. elegans DNSN-1
MCM-3
  binding: binds
PSF-2 (C. elegans)
  binding: binds
